# From PubChem BioAssay AID2685 (National Center for Advancing Translational Sciences (NCATS), 2010)
# The list shows a part of the results. Further columns of the screen follow, without active or inactive calls. The list favours compounds with an active or inconclusive main result. The note in brackets gives the kind of curve behind each potency; many fits are weak.
# Assay: qHTS Assay for Lipid Storage Modulators in Drosophila S3 Cells;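 as to cell number change: cells counted by Cell Tracker Red CMTPX staining in the red channel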
# Settings: BODIPY lipid droplet fluorescence, 18-24 h; for cell number change: measured here: cell count max response, cells fed with added oleic acid
# How it was run: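 Laser-scanning cytometry quantifies lipid droplet accumulation (500–530 nm total intensity; droplet/cell object ratio) in oleic acid-fed (400 uM added) Drosophila S3 cells treated with a concentration series. 20 uM Triacsin C defined 100% inhibition.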
# [1] = measured here: lipid fluorescence (Fed channel) AC50, cells fed with added oleic acid
# [2] = measured here: cell number channel AC50, cells fed with added oleic acid
SMILES,cell number change [%],AC50 [1],AC50 [2]
O=C(Nc1cccc(C(=O)O)c1)/C(=C\c1ccc2c(c1)OCO2)NC(=O)c1ccccc1,14,,
CCc1ccc2oc(=O)cc(CN3CCCCC3)c2c1,12.5,"16.4 µM [falling, single point]",
OC(CN1CCCCC1)CN(c1ccccc1)c1ccccc1 (stereo not given),-9.75,"0.116 µM [falling, full curve, poor fit]",
Cc1ccc(-c2cn3c(n2)CCCC3)cc1,32.4,"0.82 µM [falling, full curve]","32.6 µM [rising, single point]"
Cc1nn(Cc2cccc(C(=O)NC34CC5CC(CC(C5)C3)C4)c2)c(C)c1Br,-23,"29.1 µM [rising, single point]",
COc1ccc([C@H](NC(=O)OC(C)(C)C)C(=O)OC(C)(C)C)cc1,13.6,"0.0651 µM [rising, full curve, poor fit]","2.91 µM [rising, single point]"
COc1ccc(CCN=C(N)C(C)c2ccccc2)cc1OC (stereo not given),11.3,"0.58 µM [rising, single point]",
O=[N+]([O-])c1ccc(Nc2nc(NC3CCCCC3)nc(N3CCCC3)n2)cc1,-14.8,"0.82 µM [falling, single point]",
COc1cc(-c2cc(C(=O)N3CCN(c4ccccn4)CC3)c3ccccc3n2)cc(OC)c1OC,-16.1,,
COCCNS(=O)(=O)c1ccc(C2CNC(=O)C2)cc1 (stereo not given),1.75,,
O=C1c2ccccc2C(=O)N1/N=C/c1ccc(Oc2ccc([N+](=O)[O-])cn2)cc1,18.2,"0.103 µM [falling, full curve, poor fit]",
CN(C)Cc1c(C(=O)N/N=C/c2ccco2)nnn1-c1nonc1N,-1.28,"0.411 µM [rising, partial curve, poor fit]",
COc1ccc(NC(=O)Nc2ccc3nc(C)c(C)nc3c2)cc1,22.1,"29.1 µM [rising, partial curve, poor fit]",
O=[N+]([O-])c1ccc(N=Cc2ccc(Br)c([N+](=O)[O-])c2)cc1,-61.4,,"0.184 µM [falling, full curve]"
Cc1nnc2n(-c3ccccc3)c(=O)c3c4c(sc3n12)COC(C(C)C)C4 (stereo not given),-1.4,"1.03 µM [rising, partial curve]",
CCCCn1c(/N=C/c2ccc3c(c2)OCO3)nc2ccccc21,24.8,"1.3 µM [falling, full curve]","0.00411 µM [rising, full curve, poor fit]"
Cc1cc(O)c(C(C)C)cc1N=Cc1ccccc1O,-66.5,"25.9 µM [falling, partial curve]","23.1 µM [falling, partial curve]"
Cc1cccc(OCC(O)CN2CCNCC2)c1 (stereo not given),5.56,,
COc1ccc(-c2c(C#Cc3ccsc3)c3cc(Br)ccc3n2C)cc1,-22.7,"0.58 µM [falling, single point]",

# Arranged by heavy-atom count (falling): part of the list above
SMILES,cell number change [%],AC50 [1],AC50 [2]
O=C(Nc1cccc(C(=O)O)c1)/C(=C\c1ccc2c(c1)OCO2)NC(=O)c1ccccc1,14,,
Cc1nn(Cc2cccc(C(=O)NC34CC5CC(CC(C5)C3)C4)c2)c(C)c1Br,-23,"29.1 µM [rising, single point]",
Cc1nnc2n(-c3ccccc3)c(=O)c3c4c(sc3n12)COC(C(C)C)C4 (stereo not given),-1.4,"1.03 µM [rising, partial curve]",
COc1ccc([C@H](NC(=O)OC(C)(C)C)C(=O)OC(C)(C)C)cc1,13.6,"0.0651 µM [rising, full curve, poor fit]","2.91 µM [rising, single point]"
COc1ccc(CCN=C(N)C(C)c2ccccc2)cc1OC (stereo not given),11.3,"0.58 µM [rising, single point]",
Cc1cc(O)c(C(C)C)cc1N=Cc1ccccc1O,-66.5,"25.9 µM [falling, partial curve]","23.1 µM [falling, partial curve]"
Cc1cccc(OCC(O)CN2CCNCC2)c1 (stereo not given),5.56,,
Cc1ccc(-c2cn3c(n2)CCCC3)cc1,32.4,"0.82 µM [falling, full curve]","32.6 µM [rising, single point]"

# (listing goes on)

SMILES,cell number change [%],AC50 [1],AC50 [2]
Cc1ccc(S(=O)(=O)Nc2ccc(O)c(S(=O)(=O)c3ccc(C)cc3)c2)cc1,-25.1,,
CN(CCC#N)C(=O)COC(=O)c1ccc(Cl)c(S(N)(=O)=O)c1,-73.1,"3.66 µM [falling, full curve]","3.26 µM [falling, full curve]"
Cc1cccc(OCC(=O)Nc2ccc3nc(C)sc3c2)c1,,"5.17 µM [falling, single point]",
COc1ccc(C(=O)NCCOc2ccccc2)cc1S(=O)(=O)N1CCOCC1,33.4,"0.164 µM [rising, full curve, poor fit]","0.164 µM [rising, full curve, poor fit]"
Cc1cc(CNC(=O)CC2C(=O)NCCN2Cc2ccccc2)nn1C (stereo not given),10.8,"29.1 µM [rising, single point]",
Cc1[nH]c2ccccc2c1/C=N/Nc1nc(N2CCCCC2)nc(N2CCCCC2)n1,12.4,"3.26 µM [rising, full curve, poor fit]",
COc1ccc(OC)c(C(O)c2coc3ccc(O)c(CN(C)C)c23)c1 (stereo not given),34.2,,"11.6 µM [rising, partial curve, poor fit]"
CCCC(O)(c1ccc(Cl)cc1)C(CN1CCOCC1)c1ccc(Cl)cc1 (stereo not given),-52.1,"29.1 µM [falling, single point]","18.4 µM [falling, partial curve]"
COc1cc(C(=O)Nc2ccc(S(=O)(=O)Nc3cc(C)nc(C)n3)cc2)cc(OC)c1OC,-3.42,"29.1 µM [falling, single point]",
O=C(NCc1ccccc1)c1nc(-c2cccs2)no1,24.7,"16.4 µM [rising, single point]",
COc1ccc(C(C(=O)NC2CCCC2)N(Cc2cccnc2)C(=O)c2snc(C(N)=O)c2N)cc1 (stereo not given),22.6,,
Nc1ccc(C(=O)Oc2ccc([N+](=O)[O-])cc2)cc1,-6.34,"0.092 µM [falling, full curve, poor fit]","0.116 µM [falling, full curve, poor fit]"
Clc1ccc2c(N/N=C/c3ccc(Br)cc3)ccnc2c1,-75,,"8.2 µM [falling, partial curve]"
COc1cc(C(O)P(=O)(OC2CCCCC2)c2ccc(N(C)C)cc2)cc(OC)c1OC (stereo not given),46.3,,"16.4 µM [rising, single point]"
CN(C)c1ccc(C2N(c3ccc(Cl)cc3)C(=O)C3CCCN32)cc1 (stereo not given),3.71,,
O=C(C1CCC(=O)N(C2CCCCCC2)C1)N1CCN(c2ccccc2Cl)CC1 (stereo not given),-26.3,"2.06 µM [falling, partial curve]",
CCCNC(=O)c1ccc2c(=O)c(O)c(-c3ccc(C)cc3)[nH]c2c1,-38.5,"29.1 µM [falling, single point]","29.1 µM [falling, single point]"
CC(=O)N1CCc2cc(S(=O)(=O)CCC(=O)NCc3ccc(F)cc3)ccc21,-0.19,,"1.84 µM [rising, partial curve, poor fit]"
